The test system of the experiment is L1210 leukemia ip in BDF1 mice, survival T/C. Briefly: NCI In Vivo Anticancer Drug Screen. Data for tumor model L1210 Leukemia (intraperitoneal) in B6D2F1 (BDF1) mice. To be noted: T/C endpoint: mean survival time, higher T/C = longer survival.
[1] abbreviates: dose: 400.0 mg/kg/injection, schedule: Q01DX001 (ip), vehicle: carboxymethylcellulose (CMC).
Setting [2] is: dose: 100.0 mg/kg/injection, schedule: Q01DX001 (ip), vehicle: saline.
[3] abbreviates: dose: 200.0 mg/kg/injection, schedule: Q01DX001 (ip), vehicle: saline.
Where [4] appears, read: dose: 400.0 mg/kg/injection, schedule: Q01DX001 (ip), vehicle: saline.
Where [5] appears, read: dose: 400.0 mg/kg/injection, schedule: Q01DX001 (ip), vehicle: Klucel (hydroxypropylcellulose) (HPC).
Where [6] appears, read: dose: 400.0 mg/kg/injection, schedule: Q01DX009 (ip), vehicle: Klucel (hydroxypropylcellulose) (HPC).
Where [7] appears, read: dose: 6.25 mg/kg/injection, schedule: Q01DX009 (ip), vehicle: Klucel (hydroxypropylcellulose) (HPC).
[8] abbreviates: dose: 12.5 mg/kg/injection, schedule: Q01DX009 (ip), vehicle: Klucel (hydroxypropylcellulose) (HPC).
Where [9] appears, read: dose: 25.0 mg/kg/injection, schedule: Q01DX009 (ip), vehicle: Klucel (hydroxypropylcellulose) (HPC).
The mark [10] stands for this setting: dose: 50.0 mg/kg/injection, schedule: Q01DX009 (ip), vehicle: Klucel (hydroxypropylcellulose) (HPC).
Where [11] appears, read: dose: 100.0 mg/kg/injection, schedule: Q01DX009 (ip), vehicle: Klucel (hydroxypropylcellulose) (HPC).

Experimental findings from PubChem BioAssay AID248 (DTP/NCI, 2004) are described below.

The list does not hold the whole screen: it is rich in T/C values a quarter to a half above the control, in often repeated tests (any T/C) and in doses without a T/C. Other doses and runs of a compound stand elsewhere. T/C gives the treated animals as a percentage of the vehicle group. Some entries give survivors of the animals treated and no T/C: the source holds a T/C of zero for them, seemingly a mark for toxic or unscored doses. Some doses without a T/C left all or most animals alive at the check, yet need not have been tolerated: the source hardly ever lists a survival T/C far under the control, and the zero likely stands for such cases as well. Counts of survivors are from the toxicity check (mostly the fifth day) where no day follows; animals may have died later. Schedule codes are those of the source, taken here to give the interval after Q, in days (D) or hours (H), and the number of doses after X. Some schedule codes hold Z or #, which are not explained here. Some doses were run more than once; their values stand side by side, smallest first. For survival time, this PubChem deposit counts one and a half times the control or more as active, and values a quarter to a half above the control carry no call in these data; other NCI protocols may use other cut-offs. Some T/C values are followed by the survivors on the day toxicity was checked, most often the fifth; without a count, all were alive then.

Consider `C=CC(C)NC(=S)NNC(=S)NC` (configuration not stated), for which the survivor count (dose: 30.0 mg/kg/injection, schedule: Q01DX015 (ip), vehicle: carboxymethylcellulose (CMC)) is on record as 6 of 6; the survivor count (dose: 120.0 mg/kg/injection, schedule: Q01DX015 (ip), vehicle: carboxymethylcellulose (CMC)) was 6 of 6; the survivor count under setting [1] is 6 of 6.
Turning to `Cc1nc(N)sc1N=Nc1ccccc1Br`, the survivor count (dose: 300.0 mg/kg/injection, schedule: Q01DX001 (ip), vehicle: saline) is 0 of 6.
Regarding `CC(=O)NC(CSCc1c2ccccc2c(C)c2ccccc12)C(=O)O` (configuration not stated), for the setting “dose: 400.0 mg/kg/injection, schedule: Q01DX009 (ip), vehicle: saline with Tween-80”, the survivor count is recorded as 5 of 6.
Turning to `CCCCn1nnc2c(NN)nc(N)nc21`, the survivor count (dose: 100.0 mg/kg/injection, schedule: Q01DX009 (ip), vehicle: saline with Tween-80) is listed as 4 of 6.
In the case of `COc1cc([C@@H]2c3cc4c(cc3[C@H](O)[C@H]3COC(=O)[C@@H]23)OCO4)cc(OC)c1OC`, the survivor count by setting is: (dose: 7.5 mg/kg/injection, schedule: Q01DX Z (ip), vehicle: methylcellulose (MC)) 6 of 6; (dose: 36.0 mg/kg/injection, schedule: Q01DX Z (ip), vehicle: methylcellulose (MC)) 6 of 6; (dose: 54.0 mg/kg/injection, schedule: Q01DX Z (ip), vehicle: methylcellulose (MC)) 5 of 6; (dose: 60.0 mg/kg/injection, schedule: Q01DX Z (ip), vehicle: methylcellulose (MC)) 4 of 6; (dose: 96.0 mg/kg/injection, schedule: Q01DX009 (ip), vehicle: Klucel (hydroxypropylcellulose) (HPC)) 5 of 6; (dose: 115.0 mg/kg/injection, schedule: Q01DX009 (ip), vehicle: saline) 2 of 6. Besides, the survivor count by setting is: (dose: 170.0 mg/kg/injection, schedule: Q01DX009 (ip), vehicle: saline) 3 of 6; (dose: 255.0 mg/kg/injection, schedule: Q01DX009 (ip), vehicle: saline) 2 of 6; under setting [4], 2 of 6; (dose: 600.0 mg/kg/injection, schedule: Q01DX001 (ip), vehicle: carboxymethylcellulose (CMC)) 0 of 4. Besides, the T/C was 134 % of control (dose: 50.0 mg/kg/injection, schedule: Q01DX009 (ip), vehicle: saline); 125 [5 of 6 alive] and 143 % of control [5 of 6 alive] under setting [2]; 126 % of control (dose: 178.0 mg/kg/injection, schedule: Q01DX001 (ip), vehicle: carboxymethylcellulose (CMC)); 135 % of control [5 of 6 alive] under setting [3]; 135 % of control (dose: 267.0 mg/kg/injection, schedule: Q01DX001 (ip), vehicle: carboxymethylcellulose (CMC)); 136 % of control under setting [1].
Regarding `Nc1cccc(OCc2nc(N)nc(N)c2-c2ccc(Cl)c(Cl)c2)c1`, the survivor count (dose: 400.0 mg/kg/injection, schedule: Q01DX001 (ip), vehicle: saline with Tween-80) is 5 of 6.
Regarding `Cc1cc2ccccc2[n+](C)c1-c1ccccc1Br`, the survivor count reads like this: (dose: 20.0 mg/kg/injection, schedule: Q01DX001 (ip), vehicle: saline) 0 of 6; (dose: 40.0 mg/kg/injection, schedule: Q01DX001 (ip), vehicle: saline) 0 of 6; (dose: 80.0 mg/kg/injection, schedule: Q01DX001 (ip), vehicle: saline) 0 of 6; under setting [2], 0 of 4; under setting [3], 0 of 4; under setting [4], 0 of 4.
As to `O=C(Nc1cc([N+](=O)[O-])cc([N+](=O)[O-])c1O)C(F)(F)F`, the survivor count (dose: 200.0 mg/kg/injection, schedule: Q01DX001 (ip), vehicle: Klucel (hydroxypropylcellulose) (HPC)) is given as 2 of 6 and the survivor count under setting [5] is recorded as 0 of 3.
`O=C(O)c1cc2oc3ccccc3c2cc1O`: the survivor count under setting [6] is 0 of 6.
Consider `Cc1ccc([As](=O)(O)O)cc1F`, for which the survivor count under setting [7] is 1 of 3, the survivor count under setting [8] is 1 of 3 and the survivor count under setting [9] is on record as 0 of 3.
For `CCN(CC)C(N)=Nc1ccc(NC(=O)c2ccc(C(=O)Nc3ccc(N=C(N)N(CC)CC)cc3)cc2)cc1`, the T/C (dose: 3.7 mg/kg/injection, schedule: Q01DX Z (ip), vehicle: water) was 136 % of control and the T/C (dose: 13.0 mg/kg/injection, schedule: Q01DX Z (ip), vehicle: water) was 139 % of control.
For `Nc1cc(Nc2ccccc2)nc(=O)[nH]1`, the survivor count under setting [5] is listed as 5 of 6.
For `COc1ccc(OC(=O)Nc2cc([N+](=O)[O-])ccc2OC)cc1`, the survivor count is on record as 3 of 3 under setting [10] and 3 of 3 under setting [11].
As for `CCCCCCCC(=O)N(CC)CC`, the T/C (dose: 100.0 mg/kg/injection, schedule: Q04DX002 (ip), vehicle: saline) was 128 % of control. Besides, the survivor count (dose: 200.0 mg/kg/injection, schedule: Q01DX009 (ip), vehicle: saline) is listed as 0 of 3.
For `CCCCCCCCCCc1ccccc1`, the survivor count is 3 of 3 (dose: 100.0 mg/kg/injection, schedule: Q04DX002 (ip), vehicle: saline with Tween-80) and 3 of 3 (dose: 400.0 mg/kg/injection, schedule: Q04DX002 (ip), vehicle: saline with Tween-80).
As for `CCOC(=O)NP(=O)(NC1CCCCC1)NC1CCCCC1`, the survivor count (dose: 400.0 mg/kg/injection, schedule: Q01DX001 (ip), vehicle: alcohol) was 1 of 4.
In the case of `CCC(C)C(CN)(CCCCN(C)C)c1cccc2ccccc12` (configuration not stated), the survivor count (dose: 400.0 mg/kg/injection, schedule: Q04DX003 (ip), vehicle: saline with Tween-80) is given as 6 of 6.
Take `Oc1ccc(Br)cc1C=Nc1cnc2ccccc2c1`: the survivor count under setting [1] is 4 of 4.
For `COc1cccc(N2C(=O)C=CC2=O)c1`, the survivor count runs as follows: under setting [7], 2 of 6 and 3 of 6; under setting [8], 1 of 6; under setting [9], 0 of 6; under setting [10], 0 of 6; under setting [11], 0 of 6; (dose: 200.0 mg/kg/injection, schedule: Q01DX009 (ip), vehicle: Klucel (hydroxypropylcellulose) (HPC)) 0 of 6. Also, the survivor count under setting [6] was 0 of 6.
Regarding `Clc1ccccc1OB(Oc1ccccc1Cl)Oc1ccccc1Cl`, the survivor count under setting [4] was 1 of 4.
Regarding `C/C(=N\NC(N)=O)C(F)(F)F`, the survivor count is listed as 1 of 6 (dose: 480.0 mg/kg/injection, schedule: Q01DX Z (ip), vehicle: carboxymethylcellulose (CMC)) and 0 of 6 (dose: 960.0 mg/kg/injection, schedule: Q01DX Z (oral), vehicle: carboxymethylcellulose (CMC)).
